Assay results reported in patent publication US7932083B2, “DNA participating in hydroxylation of macrolide compound” (priority 2003, dated 2011).

Test system: E. coli BL21(DE3)/pT7NS-CamAB strain used as a control
Assay: Conversion reaction with control strain BL21(DE3)/pT7NS-CamAB, HPLC amounts
Assay type: cell-based
Settings: 28° C., 24 hours
[1] = substrate 11107B (12.5 μL of 40 mg/mL), Example 9
[2] = substrate 11107B (12.5 μL of 40 mg/mL), Example 12
[3] = substrate 11107B (50 μL of 40 mg/mL), Example 4
[4] = substrate ME-265 (50 μL of 8 mg/mL)

For `CCC(O)C(C)C1OC1CC(C)/C=C/C=C(\C)C1OC(=O)CC(O)CCC(C)(O)C(OC(C)=O)/C=C/C1C` (centres unmarked) [11107B], the “amount in conversion reaction solution (HPLC), BL21(DE3)/pT7NS-CamAB” value (shortened to “amount in conversion reaction solution”) [1] was 162 mg/L, the “amount in conversion reaction solution” value [2] was 141 mg/L and the “amount in conversion reaction solution” value [3] was 636 mg/L.

In the case of `CCC(O)C(C)C1OC1CC(C)(O)/C=C/C=C(\C)C1OC(=O)CC(O)CCC(C)(O)C(OC(C)=O)/C=C/C1C` (centres unmarked) [11107D], the “amount in conversion reaction solution” value [1] is reported as 0.00 mg/L, the “amount in conversion reaction solution” value [2] is reported as 0 mg/L and the “amount in conversion reaction solution” value [3] is reported as 0 mg/L.

In the case of `CCC(O)C(C)C1OC1CC(C)/C=C/C=C(\C)C1OC(=O)CC(O)CCC(C)C(OC(C)=O)/C=C/C1C` (centres unmarked) [ME-265], the “amount in conversion reaction solution” value [4] is reported as 143 mg/L.

`CCC(O)C(C)C1OC1CC(C)(O)/C=C/C=C(\C)C1OC(=O)CC(O)CCC(C)C(OC(C)=O)/C=C/C1C` (centres unmarked) [ME-282] was tested, and the “amount in conversion reaction solution” value [4] was 0 mg/L.
